Laboratory results reported in PMC11997425.
For at least one entry, the source does not settle the construct or the ends of the probe. Where cells or extracts were used, other partners may take part. The comparison behind a weaker result is the experiment's own reference, which may not be listed here. Where a protein sequence is shown, tags need not be part of it.

Biological target: T1, PsAGL9-GFP (Paeonia suffruticosa) (UniProt V9I0Q3)
T1 sequence (looked up): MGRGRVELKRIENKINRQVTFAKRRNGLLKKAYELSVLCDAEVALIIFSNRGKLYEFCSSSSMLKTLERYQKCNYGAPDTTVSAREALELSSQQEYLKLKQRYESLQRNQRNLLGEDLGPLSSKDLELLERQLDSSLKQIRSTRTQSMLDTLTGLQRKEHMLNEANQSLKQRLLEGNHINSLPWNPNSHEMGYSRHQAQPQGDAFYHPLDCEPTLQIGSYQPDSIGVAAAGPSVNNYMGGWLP
Test: EMSA
Details: Chemiluminescent EMSA Kit (Beyotime), pH and temperature not stated, protein in a lysate after overexpression, residues 1-243, protein details: GFP, label: biotin

TTTGGCCAATTTTGGTTAAA (double strand) [PsCYCD CArG probe (Methods)]
binding result (increasing protein, without PsRGL1): binds | binding result (with HA-PsRGL1 (inhibits DNA binding)): binds more weakly
